The supplement of paper PMC10735217
Counter-ions that a name gives are not always drawn. The list shows a part of the results. This data set is noisy: repeats of one test often differ as much as different tests do.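 Human kidney-derived cells stably carry a construct in which eight TEAD-binding elements drive luciferase, measured by luminescence in a drug-repurposing library screen. A hit is any compound whose signal exceeds the plate mean by more than five robust Z scores.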

System: HEK293A TEAD-LUC reporter
Test: TEAD-luciferase reporter activity (YAP activation), robust Z score vs plate; higher = stronger YAP/TEAD activation
Settings: 24 h

| SMILES | TEAD-luciferase reporter activity (compound concentration: 200 nM) | TEAD-luciferase reporter activity (compound concentration: 2 uM) | TEAD-luciferase reporter activity (compound concentration: 10 uM) |
| --- | --- | --- | --- |
| Oc1ccc2c3c1O[C@H]1[C@H](O)CC[C@@]4(O)[C@@H](C2)N(CC2CC2)CC[C@]314 [6beta-naltrexol] | inactive: -1.15 | inactive: 1.66 | inactive: 1.31 |
| CS(=O)(=O)OCCN(CCCl)c1ccc(C(=O)N[C@@H](CCC(=O)O)C(=O)O)cc1 | inactive: -2.11 | inactive: 0.00255 | inactive: 0.346 |
| NC[C@H](O)C[PH](=O)O | inactive: -1.17 |  | inactive: -0.114 |
| C[C@]12CC[C@H]3[C@@H](CCC4=CC(=O)CC[C@@H]43)[C@@H]1CC[C@@H]2OC(=O)N(CCCl)N=O | inactive: 0.134 | inactive: -0.93 | inactive: -0.811 |
| Oc1cccc[c]1[Hg][Cl] | inactive: -1.32 | inactive: 0.283 | inactive: 0.714 |
| C[C@H](Cc1ccc(OCC(=O)O)cc1)NC[C@H](O)c1cccc(Cl)c1 | inactive: -0.0565 | inactive: -0.873 | inactive: -1.66 |
| C/C(=C\[C@H](C(C)C)N(C)C(=O)[C@@H](NC(=O)[C@H]1CCCCN1C(C)C)C(C)(C)C)C(=O)O | inactive: -0.275 | active: 6.76 | active: 6.81 |
| CN1CCC2=C(C1)c1ccccc1Cc1ccccc12 [setiptiline] | inactive: 1.13 | inactive: -1.11 | inactive: 1.71 |
| COc1cc2c(cc1OC)C(c1cccc(Cl)c1)=NN=C(C)C2 | inactive: -0.447 | inactive: -1.29 | inactive: -0.787 |
| CCCCOCC(CN1C(=O)N(CC(COCCCC)OC(N)=O)C(=O)C(CC)(c2ccccc2)C1=O)OC(N)=O (stereo unspecified) [Difebarbamate] | inactive: -0.0179 | inactive: -1.17 | inactive: 2.42 |
| Nc1cc(OCC2CC2)c(C(=O)NC2CN3CCC2CC3)cc1Cl (stereo unspecified) [Pancopride] | inactive: -2.65 | inactive: 0.596 | inactive: -0.131 |
| CC(=O)OC1CCC2(C)C(=CCC3C2CCC2(C)C(OC(C)=O)CCC32)C1 (stereo unspecified) | inactive: -0.853 | inactive: 0.816 | active: 7.71 |
| CCCC(C)(COC(N)=O)COC(=O)NC(C)C (stereo unspecified) [Carisoprodol (Sanoma)] |  | inactive: -1.33 |  |
| CCCC(C)(COC(N)=O)COC(=O)NC(C)C (stereo unspecified) | inactive: 0.744 |  | inactive: -0.0677 |
| C=C(C)CC1(CC)C(=O)NC(=S)NC1=O | inactive: 2.25 | inactive: -0.99 | inactive: -2.21 |
| CNC(=O)Oc1ccc2c(c1)C1(C)CCN(C)C1N2C (stereo unspecified) [physostigmine, Calabar] | inactive: 1.95 | inactive: -1.78 | inactive: -0.607 |
| O=C(O)c1cc2ccccc2n1Cc1ccc(Cl)cc1 | inactive: 0.836 | inactive: 3.73 | inactive: 1.49 |
| COc1ccc2c3c1O[C@H]1C=CC=C4C(C2)NCCC431 (stereo partly specified) [Norcodeine, derivative of] | inactive: -0.839 | inactive: -1.13 | inactive: 1.01 |
| CN(C(=O)/C=C/c1ccoc1)[C@@H]1CC[C@@]2(O)[C@H]3Cc4ccc(O)c5c4[C@@]2(CCN3CC2CC2)[C@H]1O5 [Nalfurafine Hydrochloride] | inactive: -1.3 | inactive: -0.559 | inactive: -2.66 |
| O=C(CCNc1c2ccccc2nc2ccccc12)OCCN(CCCl)CCCl [Amustaline] | inactive: -1.55 | inactive: -1.04 | inactive: -0.474 |
| COc1ccc(CCNCC(O)c2ccccc2)cc1OC (stereo unspecified) | active: 5.18 | inactive: -1.13 | inactive: -2.01 |
| Nc1ncnc2c1ncn2CCOCP(=O)(O)O [Adefovir] | inactive: -1.03 |  | inactive: -0.55 |
| O=C(O)CCCCCCNC1c2ccccc2CCc2ccccc21 [amineptine] | inactive: 4.08 | inactive: 1.24 | inactive: -2.17 |
| CCC(=O)O[C@H]1CC[C@H]2[C@@H]3CC[C@H]4CC(=O)[C@H](C)C[C@]4(C)[C@H]3CC[C@]12C [Drostanolone Propionate] | inactive: -0.887 | inactive: -0.522 | inactive: -1.36 |
| Clc1ccc(OCC2CCN2)cn1 (stereo unspecified) | inactive: 0.651 | inactive: -0.992 | inactive: 0.0873 |
| CC1Sc2c(C(=O)O)c(=O)c3cc(F)c(N4CCNCC4)cc3n21 (stereo unspecified) [Ulifloxacin] | inactive: -1.23 | inactive: -1.51 | inactive: -0.65 |
| CCC[C@@H](C)C[C@H](CN)CC(=O)O | inactive: -0.592 | inactive: -0.616 | inactive: 1.03 |

Reprinted at random: 2 records from the list.

| SMILES | TEAD-luciferase reporter activity (compound concentration: 200 nM) | TEAD-luciferase reporter activity (compound concentration: 2 uM) | TEAD-luciferase reporter activity (compound concentration: 10 uM) |
| --- | --- | --- | --- |
| CCCC(C)(COC(N)=O)COC(=O)NC(C)C (stereo unspecified) [Carisoprodol (Sanoma)] |  | inactive: -1.33 |  |
| CN(C(=O)/C=C/c1ccoc1)[C@@H]1CC[C@@]2(O)[C@H]3Cc4ccc(O)c5c4[C@@]2(CCN3CC2CC2)[C@H]1O5 [Nalfurafine Hydrochloride] | inactive: -1.3 | inactive: -0.559 | inactive: -2.66 |
